Drawing on the supplement of paper PMC7024190, this text covers log for 39 molecules.

Some of the results follow. This data set is noisy: repeats of one test often differ as much as different tests do.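 The cells were human embryonic kidney cells carrying a Renilla luciferase gene, driven by the HSV-TK promoter, on a plasmid put in briefly by transfection. This is the first-round screen of about ten thousand compounds, looking for ones that raise reporter output.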

The subject of this assay is HEK 293FT. Nature of the assay: log relative Renilla luciferase luminescence (reporter expression vs reference, reference not stated) (log (base not stated)); higher = higher recombinant reporter expression. To be noted: 10 µM; time after transfection 48 h.
On to `CN=C(N)NCCC[C@H](N)C(=O)O` [L-Ornithine, N5-[imino(methylamino)methyl]-[CAS]], for which the log amounted to 0.14.

In the case of `Cc1[nH]c(=O)c(C#N)cc1-c1ccncc1`, the log was -0.0526.

With `CC(=O)Oc1ccccc1C(=O)Nc1ncc([N+](=O)[O-])s1`, the log is -1.4.

Regarding `CC(C)(C)NC(=O)[C@H]1CC[C@H]2[C@@H]3CC[C@H]4NC(=O)C=C[C@]4(C)[C@H]3CC[C@]12C`, the log is -0.247.

With `O=C1N[C@H](C(=O)O)CS1` [4-Thiazolidinecarboxylic acid, 2-oxo-, (R)- [CAS]], the log came to 0.179.

With `CN(C)CCN(Cc1ccccc1)c1ccccn1`, the log is -0.0234.

As to `CCCc1nc(C)c2c(=O)nc(-c3cc(S(=O)(=O)N4CCN(CC)CC4)ccc3OCC)[nH]n12`, the log came out at 0.143.

As for `CN1C(=O)CC[C@H]1c1cccnc1` [(-)-Cotinine], the log was -0.0978.

Consider `O=C(CCCN1CC=C(n2c(=O)[nH]c3ccccc32)CC1)c1ccc(F)cc1`, for which the log was -0.924.

On to `C=C1/C(=C\C=C2/CCC[C@]3(C)[C@@H]([C@H](C)/C=C/[C@@H](O)C4CC4)CC[C@@H]23)C[C@@H](O)C[C@@H]1O`, for which the log was -0.0635.

For the molecule `CCOC(=O)C1=C(C)NC(C)=C(C(=O)OCC)C1c1ccccc1/C=C/C(=O)OC(C)(C)C`, the log was -0.702.

Regarding `CNC(=C[N+](=O)[O-])NCCSCc1csc(CN(C)C)n1`, the log stood at 0.0639.

`CCOC(=O)N1CCC(=C2c3ccc(Cl)cc3CCc3cccnc32)CC1`: the log turned out to be 0.101.

`O=C1c2c(O)cc(O)cc2O[C@H](c2ccc(O)c(O)c2)[C@H]1O`: the log was -0.0635.

For `CN(C)CCOC(c1ccccc1)c1ccccc1`, the log was found to be 0.126.

Consider `NC1CCN(c2nc3c(cc2F)c(=O)c(C(=O)O)cn3-c2ccc(F)cc2F)C1` (centres undefined), for which the log is -0.0466.

On to `CC(C)(C)NCC(O)c1ccc(O)c(CO)c1` (centres undefined), for which the log turned out to be 0.054.

Take `CCOC(=O)C1(CCCCCCOc2ccc(Cl)cc2)CO1` (centres undefined): the log was -1.56.

For `CC[C@H]1OC(=O)[C@H](C)C(=O)[C@H](C)[C@@H](O[C@@H]2O[C@H](C)C[C@H](N(C)C)[C@H]2O)[C@](C)(OC)C[C@@H](C)C(=O)[C@H](C)[C@H]2N(CCCCn3cnc(-c4cccnc4)c3)C(=O)O[C@]12C`, the log is -1.69.

As to `COc1cc(C)c(Cc2cnc(N)nc2N)cc1OC`, the log was -0.00738.

Consider `C[C@]12C[C@H](O)[C@H]3[C@@H](CCC4=CC(=O)CC[C@@]43C)[C@@H]1CC[C@@H]2C(=O)CO`, for which the log was -0.452.

`CC1CCN(CCCC(=O)c2ccc(F)cc2)CC1` [Metylperon]: the log was 0.0941.

Turning to `CCCCCNC(=N)N/N=C/c1c[nH]c2ccc(OC)cc12`, the log is -0.447.

Take `COC(=O)C1=C(C)NC(C)=C(C(=O)OC)C1c1ccccc1[N+](=O)[O-]`: the log was 0.166.

In the case of `O=C(c1ccc(F)cc1)C1CCN(CCn2c(=S)[nH]c3ccccc3c2=O)CC1` [Altanserin], the log was -0.321.

As to `CCN1CC(CCN2CCOCC2)C(c2ccccc2)(c2ccccc2)C1=O` (centres undefined), the log amounted to 0.172.

In the case of `COc1ccc2c3c1O[C@H]1C[C@@H](O)C=C[C@@]31CCN(C)C2` [Galanthamine], the log came out at 0.0946.

Consider `CCCc1nc(C(C)(C)O)c(C(=O)OCc2oc(=O)oc2C)n1Cc1ccc(-c2ccccc2-c2nnn[nH]2)cc1`, for which the log came to 0.0445.

In the case of `Oc1ccc(C2CNCCc3c2cc(O)c(O)c3Cl)cc1` (centres undefined), the log was -0.0676.

Turning to `C[C@@H](c1ncncc1F)[C@](O)(Cn1cncn1)c1ccc(F)cc1F`, the log was -0.142.

Turning to `CCN1CCC[C@H]1CNC(=O)c1cc(S(N)(=O)=O)ccc1OC`, the log is -0.0993.

For `O=C1c2cccc3c2[C@H](CCC3)CN1[C@@H]1CN2CCC1CC2`, the log was determined as 0.261.

In the case of `CC(C)OC(=O)CCC/C=C\C[C@@H]1[C@@H](CC[C@@H](O)CCc2ccccc2)[C@H](O)C[C@@H]1O`, the log was -0.126.

On to `CC(=O)Nc1ccc(CC(=O)O)cc1`, for which the log was -0.0135.

As to `CC(C)NCC(O)COc1ccc(CCOCC2CC2)cc1` (centres undefined), the log is -0.244.

On to `C#C[C@]1(O)CC[C@H]2[C@@H]3CCc4cc(O)ccc4[C@H]3CC[C@@]21C`, for which the log is 0.0524.

Turning to `C[C@]12C=CC(=O)C=C1CC[C@@H]1[C@@H]2[C@@H](O)C[C@@]2(C)[C@H]1CC[C@]2(O)C(=O)COC(=O)CCC(=O)O`, the log was -0.06.

Turning to `COc1cc2nc(N(C)CCCNC(=O)C3CCCO3)nc(N)c2cc1OC` (centres undefined), the log is -1.07.

On to `Cc1nccn1CC1CCc2c(c3ccccc3n2C)C1=O` (centres undefined), for which the log was determined as 0.0133.
